Here are results for two molecules from paper PMC4741484.

Chains of the proteins cited; added tags and fusions are not shown.
UniProt P01100: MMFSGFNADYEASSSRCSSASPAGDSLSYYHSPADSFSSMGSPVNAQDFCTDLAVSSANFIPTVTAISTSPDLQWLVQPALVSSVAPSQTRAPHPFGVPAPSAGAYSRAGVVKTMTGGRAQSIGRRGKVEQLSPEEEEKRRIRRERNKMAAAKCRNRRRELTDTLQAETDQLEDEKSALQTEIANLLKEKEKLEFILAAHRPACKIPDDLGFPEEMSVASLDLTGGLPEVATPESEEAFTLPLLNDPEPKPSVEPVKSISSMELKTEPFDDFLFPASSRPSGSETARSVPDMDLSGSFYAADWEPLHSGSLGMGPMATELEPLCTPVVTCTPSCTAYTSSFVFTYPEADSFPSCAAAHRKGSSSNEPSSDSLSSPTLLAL

Test [1] has as its target c-Fos (endogenous) (human (endogenous in H719 and H460)) (UniProt P01100). Kind of test: co-IP; endogenous proteins, H719 cells without or with TPA (100 ng/mL, 2 hrs); lysis in 1% NP-40, 150 mM NaCl, 50 mM Tris, 0.05% SDS; IP with anti-c-Fos or with anti-KDM2A, Western blotting with anti-KDM2A or anti-c-Fos. A general note: Immunoblotting shows a protein as a band on a membrane.

Test [2] has the same target. Nature of the test: co-IP; endogenous proteins, H460 cells, TPA treatment (100 ng/mL, 2 hrs); lysis in 1% NP-40, 150 mM NaCl, 50 mM Tris, 0.05% SDS.
Test [3] concerns the target CFP-c-Fos (UniProt P01100). Kind of test: FRET or BRET; FRET by fluorescence lifetime imaging (FLIM); HEK293T cells transfected with pECFP-c-Fos and/or pEYFP-KDM2A, without or with TPA for 2 hrs, fixed with 4% paraformaldehyde; donor CFP-c-Fos.

No constants are given. Whether binding was seen depends on the method and setting. In cells and extracts the contact can be indirect. Some binding calls cover weakened binding; strength is not graded here. For part of these data: Sequences can lack the tags named with a protein.

B1: KDM2A (endogenous) (enzyme, UniProt Q9Y2K7 1-1162)
chain: MEPEEERIRYSQRLRGTMRRRYEDDGISDDEIEGKRTFDLEEKLHTNKYNANFVTFMEGKDFNVEYIQRGGLRDPLIFKNSDGLGIKMPDPDFTVNDVKMCVGSRRMVDVMDVNTQKGIEMTMAQWTRYYETPEEEREKLYNVISLEFSHTRLENMVQRPSTVDFIDWVDNMWPRHLKESQTESTNAILEMQYPKVQKYCLMSVRGCYTDFHVDFGGTSVWYHIHQGGKVFWLIPPTAHNLELYENWLLSGKQGDIFLGDRVSDCQRIELKQGYTFVIPSGWIHAVYTPTDTLVFGGNFLHSFNIPMQLKIYNIEDRTRVPNKFRYPFYYEMCWYVLERYVYCITNRSHLTKEFQKESLSMDLELNGLESGNGDEEAVDREPRRLSSRRSVLTSPVANGVNLDYDGLGKTCRSLPSLKKTLAGDSSSDCSRGSHNGQVWDPQCAPRKDRQVHLTHFELEGLRCLVDKLESLPLHKKCVPTGIEDEDALIADVKILLEELANSDPKLALTGVPIVQWPKRDKLKFPTRPKVRVPTIPITKPHTMKPAPRLTPVRPAAASPIVSGARRRRVRCRKCKACVQGECGVCHYCRDMKKFGGPGRMKQSCVLRQCLAPRLPHSVTCSLCGEVDQNEETQDFEKKLMECCICNEIVHPGCLQMDGEGLLNEELPNCWECPKCYQEDSSEKAQKRKMEESDEEAVQAKVLRPLRSCDEPLTPPPHSPTSMLQLIHDPVSPRGMVTRSSPGAGPSDHHSASRDERFKRRQLLRLQATERTMVREKENNPSGKKELSEVEKAKIRGSYLTVTLQRPTKELHGTSIVPKLQAITASSANLRHSPRVLVQHCPARTPQRGDEEGLGGEEEEEEEEEEEDDSAEEGGAARLNGRGSWAQDGDESWMQREVWMSVFRYLSRRELCECMRVCKTWYKWCCDKRLWTKIDLSRCKAIVPQALSGIIKRQPVSLDLSWTNISKKQLTWLVNRLPGLKDLLLAGCSWSAVSALSTSSCPLLRTLDLRWAVGIKDPQIRDLLTPPADKPGQDNRSKLRNMTDFRLAGLDITDATLRLIIRHMPLLSRLDLSHCSHLTDQSSNLLTAVGSSTRYSLTELNMAGCNKLTDQTLIYLRRIANVTLIDLRGCKQITRKACEHFISDLSINSLYCLSDEKLIQKIS
In the case of B1, the binding entry in test [1] and in test [2] was “binds” each time.

B2: YFP-KDM2A (enzyme, UniProt Q9Y2K7 1-1162)
chain: MEPEEERIRYSQRLRGTMRRRYEDDGISDDEIEGKRTFDLEEKLHTNKYNANFVTFMEGKDFNVEYIQRGGLRDPLIFKNSDGLGIKMPDPDFTVNDVKMCVGSRRMVDVMDVNTQKGIEMTMAQWTRYYETPEEEREKLYNVISLEFSHTRLENMVQRPSTVDFIDWVDNMWPRHLKESQTESTNAILEMQYPKVQKYCLMSVRGCYTDFHVDFGGTSVWYHIHQGGKVFWLIPPTAHNLELYENWLLSGKQGDIFLGDRVSDCQRIELKQGYTFVIPSGWIHAVYTPTDTLVFGGNFLHSFNIPMQLKIYNIEDRTRVPNKFRYPFYYEMCWYVLERYVYCITNRSHLTKEFQKESLSMDLELNGLESGNGDEEAVDREPRRLSSRRSVLTSPVANGVNLDYDGLGKTCRSLPSLKKTLAGDSSSDCSRGSHNGQVWDPQCAPRKDRQVHLTHFELEGLRCLVDKLESLPLHKKCVPTGIEDEDALIADVKILLEELANSDPKLALTGVPIVQWPKRDKLKFPTRPKVRVPTIPITKPHTMKPAPRLTPVRPAAASPIVSGARRRRVRCRKCKACVQGECGVCHYCRDMKKFGGPGRMKQSCVLRQCLAPRLPHSVTCSLCGEVDQNEETQDFEKKLMECCICNEIVHPGCLQMDGEGLLNEELPNCWECPKCYQEDSSEKAQKRKMEESDEEAVQAKVLRPLRSCDEPLTPPPHSPTSMLQLIHDPVSPRGMVTRSSPGAGPSDHHSASRDERFKRRQLLRLQATERTMVREKENNPSGKKELSEVEKAKIRGSYLTVTLQRPTKELHGTSIVPKLQAITASSANLRHSPRVLVQHCPARTPQRGDEEGLGGEEEEEEEEEEEDDSAEEGGAARLNGRGSWAQDGDESWMQREVWMSVFRYLSRRELCECMRVCKTWYKWCCDKRLWTKIDLSRCKAIVPQALSGIIKRQPVSLDLSWTNISKKQLTWLVNRLPGLKDLLLAGCSWSAVSALSTSSCPLLRTLDLRWAVGIKDPQIRDLLTPPADKPGQDNRSKLRNMTDFRLAGLDITDATLRLIIRHMPLLSRLDLSHCSHLTDQSSNLLTAVGSSTRYSLTELNMAGCNKLTDQTLIYLRRIANVTLIDLRGCKQITRKACEHFISDLSINSLYCLSDEKLIQKIS
For the molecule B2, the binding entry in test [3] is listed as “binds”.
